Results: US8299031B2, “Human semen enhancer of viral infection peptides (SEVI) and their use” (Viro Pharmaceuticals GmbH & Co. KG, priority 2006, dated 2012)
Read-outs that look alike come from different tables or passages of the source. Not every detail of the peptide structures is certain; ends, links or a residue may be inferred. Ends that are not written are not given here.

Columns and labels:
Format in all cases: cell-based
[1] = system: HIV-1 NL4-3
Method: To analyze the effect of synthesized SEVI peptides on HIV infection, samples were resuspended in FBS free DMEM to yield a stock solution of 5 mg/ml and shacked for 20 h at 37° C. at 1400 rpm (rotations per minute) resulting in a turbid solution.
All peptides indicated in FIG. 7B were dissolved and incubated under the same conditions. […] In the presence of 50 μg/ml peptide, luciferase activities were increased about 30 fold compared to those from control cells containing no SEVI (FIG. 7A).
FIG. 7. Several synthetic PAP fragments stimulate HIV-1 infection. A) Lyophilized peptides were resuspended in DMEM without FBS and incubated for 20 h at 37° C. at 1,400 rpm using a thermo mixer (Eppendorf). […] After 20 h virus infection was detected using the Luciferase assay reagent (Promega). […] B) Shown are the peptide sequences analyzed.

[2] = system: HIV-1 NL4-3; remark: listed apart in the source
[3] = system: HIV-1 NL4-3; test: HIV-1 infection of P4-CCR5 cells (cell type independence, Gal Screen)
[4] = system: HIV-1 NL4-3; test: HIV-1 infection of TZM-bl cells (cell type independence, Gal Screen)

HKQKEKSRLQGGVLVNEILNHMKRATQIPSYKKLIMY [PAP(250-286)]
luciferase activities increased compared to control cells containing no SEVI ([1]; 50 μg/ml peptide): about 30 fold | effect on HIV-1 infection (luciferase activities relative to no peptide) ([1]; peptides 5 mg/ml shaken 20 h 37 °C, CEMX174 5.25 M7, 30 pg p24 HIV-1 NL4-3, 20 hours): dose dependently enhanced HIV-1 infection | HIV infection enhanced by the factor of ([2]; 0.4 μg/ml SEVI, CEMX174 5.25 M7 cells): 2.1 | HIV infection increased ([2]; 10 μg/ml SEVI, CEMX174 5.25 M7 cells): more than 10 fold | effect on HIV-1 infection ([2]; CEMX174 5.25 M7, 1 ng p24 NL4-3, 2 days): dose dependently promoted HIV-1 infection | HIV infection enhanced by the factor of ([3]; 0.4 μg/ml SEVI, P4-CCR5 cells): 2.4 | HIV infection increased ([3]; 10 μg/ml SEVI, P4-CCR5 cells): more than 10 fold | effect on HIV-1 infection ([3]; P4-CCR5, 1 ng p24 NL4-3, 2 days): dose dependently promoted HIV-1 infection | HIV infection enhanced by the factor of ([4]; 0.4 μg/ml SEVI, TZM-bl cells): 3.3 | HIV infection increased ([4]; 10 μg/ml SEVI, TZM-bl cells): more than 10 fold | effect on HIV-1 infection ([4]; TZM-bl, 1 ng p24 NL4-3, 2 days): dose dependently promoted HIV-1 infection
